Data from patent publication US10918655B2, “Stimulating platelet generation by activating mitochondrial biogenesis” (THE GENERAL HOSPITAL CORPORATION, priority 2016, dated 2021).
At least one compound was matched to its structure with a doubt left.

What was measured:
[1] = system: 5-FU-treated mice; experiment: platelet production in vivo in 5-FU-induced thrombocytopenia with mito-drugs; parameters: species or system B6 mice; details: 100 mg/kg gavage twice a day for 4 days
Method: FIG. 10 provides a graph showing the enhancement of plt production by mito-drugs in vivo. All mice were treated with two doses of 5-FU (FU), along with an indicated mito-drug or LLLT for 4 consecutive days (red arrow). *, p<0.05, **, p<0.01 and ***, p<0.001 in the presence or absence of indicated drugs or LLLT. n=10 in each group.
The 5-FU-treated mice were gavaged with BEZ or Res at 100 mg/kg body weight or vehicle control twice a day for 4 consecutive days starting at 6 hr after the first 5-FU injection. For comparison, 5-FU-treated mice were also administered LLL daily for 4 consecutive days in parallel. […] Whether or not a higher dose or dosage of BEZ can further increase the efficacy remains to be investigated.

[2] = system: Mouse MKs; experiment: platelet production ex vivo from MKs in the presence of mito-drugs; type: cell-based; details: Bezafibrate 400 μM; Resveratrol 50 μM; SRT1720 0.1 μM; AICAR 500 μM; MK medium for 3 days; compared to controls
Method: FIG. 9 provides a graph showing enhancement of platelet production ex vivo by mito-drugs. C. control; Bez, Bezafibrate (400 μM); Res, Resveratrol (50 μM); SRT1720, 0.1 μM; Aicar, AICAR (500 μM); LLL, 810 nm 3 J/cm^2. Mouse MKs were differentiated in MK medium for 3 days in the presence of an indicated drug or after LLLT. **, p<0.01 and ***, p<0.001 compared to controls. n=6.
Some mito-drugs tested enhance platelet production from MKs ex vivo. […] The concentration used for individual drugs is the one commonly used for inducing PGC-1α expression in other cell cultures except for SRT1720 that was used at a 100× lower concentration. […] Perhaps, the concentration of each drug can be further optimized for enhancing platelet production.

[3] = system: thrombocytopenia induced by anti-CD41 antibody; experiment: thrombocytopenia induced by anti-CD41 antibody (ITP model), BEZ and/or LLLT; type: in vivo, mice; details: BEZ alone, twice a day each at 100 mg/kg for 4 days; anti-CD41 antibody daily 0.1 mg/kg

## CC(C)(Oc1ccc(CCNC(=O)c2ccc(Cl)cc2)cc1)C(=O)O [BEZ, bezafibrate]
[1]; 5-FU-treated mice
  nadir of platelet counts: lessened the nadir substantially
[1]; prior to day 7, compared with LLLT
  efficacy in retaining plt counts: inferior to LLLT
[2]
  platelet generation from MKs ex vivo: enhance platelet generation from MKs ex vivo significantly
[3]
  platelet counts soon after the nadir: raised platelet counts significantly
  prevention of platelet counts dropping to the nadir: did not effectively prevent platelet counts from dropping to the nadir
